Data as given in PubChem BioAssay AID1224831 (NIAID, 2016)
In all, the deposit lists about 3,500 reagents; shown is a random part of them. Of all reagents, 731 (21%) are marked active. 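Active means either lowered or raised reporter signal; the gene-median score did not drive the per-siRNA calls.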 Reagents against one gene are numbered here. Reagent sequences are not shown.

- Purpose: 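Genes that support or restrain LPS-induced TNF-alpha reporter activity in macrophage-like cells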 (follow-up of hits)
- Cell system: human THP-1 B5 monocytic leukaemia cells carrying a TNF promoter luciferase reporter, made macrophage-like with PMA
- Reagent: single siRNA against human genes, 50 nM
- Duration: about 68 h of knock-down, then 4 h LPS
- Challenge: LPS (Salmonella minnesota, TLR-grade) at 10 ng/ml for 4 h; PMA 5 ng/ml present during knock-down
- Measurement: 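TNF promoter reporter read as dual luciferase ratio after 4 h LPS, normalised per plate to its median, given as replicate mean robust z-score per siRNA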
- Scale: TNF reporter z-score: higher = stronger LPS-induced TNF reporter signal; z-score, median over gene's siRNAs: higher = stronger TNF reporter signal across the gene's siRNAs
- Hit rule: 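Two-sided call: reduced or raised TNF reporter signal counts as active once mean z reaches about -1 or below, or about 1.5 or above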
- Calls: active = changed TNF reporter (either direction); inactive = little change

Against OR5M9 (olfactory receptor family 5 subfamily M member 9) #1, the values are TNF reporter z-score, replicate mean -0.35; z-score, median over gene's siRNAs -0.45; inactive.
OR5M9 (olfactory receptor family 5 subfamily M member 9) #2 showed TNF reporter z-score, replicate mean -0.09; z-score, median over gene's siRNAs -0.45; inactive.
With knock-down of OR5M9 (olfactory receptor family 5 subfamily M member 9) #3 the results were TNF reporter z-score, replicate mean -0.56; z-score, median over gene's siRNAs -0.45; inactive.
OR5M9 (olfactory receptor family 5 subfamily M member 9) #4 showed TNF reporter z-score, replicate mean 0.57; z-score, median over gene's siRNAs -0.45; inactive.
OR5M9 (olfactory receptor family 5 subfamily M member 9) #5 showed TNF reporter z-score, replicate mean -1.12; z-score, median over gene's siRNAs -0.45; active.
OR5M9 (olfactory receptor family 5 subfamily M member 9) #6 scored TNF reporter z-score, replicate mean -0.55; z-score, median over gene's siRNAs -0.45; inactive.
Silencing of SLC26A9 #1 gave: TNF reporter z-score, replicate mean 0.96; z-score, median over gene's siRNAs 0.785; inactive.
Against SLC26A9 #2, the entry reads TNF reporter z-score, replicate mean 1.44; z-score, median over gene's siRNAs 0.785; inactive.
Against SLC26A9 #3, the entry reads TNF reporter z-score, replicate mean 0.65; z-score, median over gene's siRNAs 0.785; inactive.
For SLC26A9 #4, the values are TNF reporter z-score, replicate mean -1.35; z-score, median over gene's siRNAs 0.785; active.
With knock-down of SLC26A9 #5 the results were TNF reporter z-score, replicate mean 0.92; z-score, median over gene's siRNAs 0.785; inactive.
Against SLC26A9 #6, the values are TNF reporter z-score, replicate mean -1.29; z-score, median over gene's siRNAs 0.785; active.

Records listed above with an active call (3):
OR5M9 (olfactory receptor family 5 subfamily M member 9) #5: TNF reporter z-score, replicate mean = -1.12; z-score, median over gene's siRNAs = -0.45; Call = active
SLC26A9 #4: TNF reporter z-score, replicate mean = -1.35; z-score, median over gene's siRNAs = 0.785; Call = active
SLC26A9 #6: TNF reporter z-score, replicate mean = -1.29; z-score, median over gene's siRNAs = 0.785; Call = active

Next reagents:
OAZ3 (ornithine decarboxylase antizyme 3) #1 showed TNF reporter z-score, replicate mean 0.68; z-score, median over gene's siRNAs 0.505; inactive.
For OAZ3 (ornithine decarboxylase antizyme 3) #2 the deposit lists TNF reporter z-score, replicate mean -0.18; z-score, median over gene's siRNAs 0.505; inactive.
Depletion of OAZ3 (ornithine decarboxylase antizyme 3) #3 resulted in: TNF reporter z-score, replicate mean 0.14; z-score, median over gene's siRNAs 0.505; inactive.
For OAZ3 (ornithine decarboxylase antizyme 3) #4, the values are TNF reporter z-score, replicate mean 0.33; z-score, median over gene's siRNAs 0.505; inactive.
Knock-down of OAZ3 (ornithine decarboxylase antizyme 3) #5 resulted in: TNF reporter z-score, replicate mean 3.05; z-score, median over gene's siRNAs 0.505; active.
Knock-down of OAZ3 (ornithine decarboxylase antizyme 3) #6 came out at: TNF reporter z-score, replicate mean 0.69; z-score, median over gene's siRNAs 0.505; inactive.
